Drawing on paper PMC6886308, “NADP(H) allosterically regulates the interaction between ferredoxin and ferredoxin‐NADP^+ reductase” (FEBS Open Bio, 2019), this text covers binding for one molecule.

Chains of the proteins cited; added tags and fusions are not shown. Residues count along the entry.
UniProt P27787, residues 53-150: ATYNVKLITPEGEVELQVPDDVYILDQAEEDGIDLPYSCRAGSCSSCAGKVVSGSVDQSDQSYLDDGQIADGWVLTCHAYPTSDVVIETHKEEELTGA

These are yes or no findings as the source states them, for the method shown. Some binding calls cover weakened binding; strength is not graded here.

The target of this assay is maize leaf ferredoxin I (maize) (UniProt P27787). Kind of assay: Fd-affinity chromatography; maize Fd I immobilised on resin (1 mL); stroma fraction of spinach chloroplasts loaded in 50 mM Tris/HCl pH 7.5, developed with 0-300 mM NaCl; fractions blotted with anti-L-FNR antibody; control and with 1 mM NADP+ or NAD+; only the target purified.

B1: ferredoxin-NADP+ reductase in the stroma fraction of spinach chloroplasts (enzyme, UniProt P00455 56-369)
chain: QIASDVEAPPPAPAKVEKHSKKMEEGITVNKFKPKTPYVGRCLLNTKITGDDAPGETWHMVFSHEGEIPYREGQSVGVIPDGEDKNGKPHKLRLYSIASSALGDFGDAKSVSLCVKRLIYTNDAGETIKGVCSNFLCDLKPGAEVKLTGPVGKEMLMPKDPNATIIMLGTGTGIAPFRSFLWKMFFEKHDDYKFNGLAWLFLGVPTSSSLLYKEEFEKMKEKAPDNFRLDFAVSREQTNEKGEKMYIQTRMAQYAVELWEMLKKDNTYFYMCGLKGMEKGIDDIMVSLAAAEGIDWIEYKRQLKKAEQWNVEVY
As to B1, the binding result was “binds”.
